Series [1] addresses TEBP-2-His5 (Caenorhabditis elegans) (UniProt Q22429). The series is described as follows: fluorescence polarization. The note with it: FP: 20 mM HEPES pH 7.0, 100 mM NaCl, 5% glycerol, 20 nM probe, 10 min at RT; recombinant protein; protein details: His5 (C-terminal by primers); label: FITC on strand 1 (5'). Background: In fluorescence polarisation assays a small probe gives low polarisation when free and higher when bound to something large.

Amino acid sequences for entries named in this document (tags omitted).
UniProt Q22429, entry or part of it: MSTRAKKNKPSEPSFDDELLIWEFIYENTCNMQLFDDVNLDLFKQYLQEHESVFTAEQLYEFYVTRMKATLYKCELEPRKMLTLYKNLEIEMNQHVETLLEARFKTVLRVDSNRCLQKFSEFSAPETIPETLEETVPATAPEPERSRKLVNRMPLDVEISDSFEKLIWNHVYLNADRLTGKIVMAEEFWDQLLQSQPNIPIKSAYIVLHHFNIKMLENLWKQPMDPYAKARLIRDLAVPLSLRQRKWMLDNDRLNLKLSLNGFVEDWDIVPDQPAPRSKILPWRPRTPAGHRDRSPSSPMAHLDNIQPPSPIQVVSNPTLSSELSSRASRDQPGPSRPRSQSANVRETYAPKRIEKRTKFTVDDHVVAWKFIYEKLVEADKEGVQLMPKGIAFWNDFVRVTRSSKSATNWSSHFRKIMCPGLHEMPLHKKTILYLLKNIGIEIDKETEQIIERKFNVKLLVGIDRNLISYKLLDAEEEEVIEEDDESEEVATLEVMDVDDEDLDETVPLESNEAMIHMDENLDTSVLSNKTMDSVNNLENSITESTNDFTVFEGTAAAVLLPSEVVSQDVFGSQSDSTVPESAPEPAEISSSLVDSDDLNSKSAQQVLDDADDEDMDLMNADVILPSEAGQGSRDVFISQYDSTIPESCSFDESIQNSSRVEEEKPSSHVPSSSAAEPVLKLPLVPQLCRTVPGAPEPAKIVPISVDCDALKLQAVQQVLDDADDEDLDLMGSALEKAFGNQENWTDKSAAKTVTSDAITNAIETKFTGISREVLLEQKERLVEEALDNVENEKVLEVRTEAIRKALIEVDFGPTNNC

The target in series [2] is TEBP-1-His5 (Caenorhabditis elegans) (UniProt O62329). Briefly: fluorescence polarization. The note with it: FP: 20 mM HEPES pH 7.0, 100 mM NaCl, 5% glycerol, 20 nM probe, 10 min at RT; recombinant protein; protein details: His5 (C-terminal by primers); label: FITC on strand 1 (5').
In series [3] the target is TEBP-1::3xFLAG (Caenorhabditis elegans) (UniProt O62329). The series is described as follows: pull-down. To be noted: pull-down: 50 mM Tris/HCl pH 7.5, 150 mM NaCl, 0.5% NP-40, 5 mM MgCl2, 1 mM DTT, salmon sperm DNA, 90 min at 4 C, protein in an extract, protein details: C-terminal 3xFLAG.
For series [4], the target named is TEBP-2::GFP (Caenorhabditis elegans) (UniProt Q22429). The series is described as follows: pull-down. The note with it: pull-down: 50 mM Tris/HCl pH 7.5, 150 mM NaCl, 0.5% NP-40, 5 mM MgCl2, 1 mM DTT, salmon sperm DNA, 90 min at 4 C, protein in an extract, protein details: C-terminal GFP.
Where [5] appears, read: label: biotin 5', single-stranded DNA.

For at least one entry, the source does not settle the construct or the ends of the probe. For some of these results: Weaker means in comparison with the reference protein, sequence or condition of that experiment. For some of these results: Results from cells or extracts need not show a direct contact. For some of these results: Negatives hold for the conditions tested. For some of these results: At least one verdict rests on a figure or table, not on a statement of the authors.

Regarding “CTGGGCTTAGGCACAAGGT (double strand) [1.5x G-rich ds]”, the binding result in series [1] and in series [2] was “binds more weakly” throughout.

Turning to “CTGTTAGGCTTAGGCGACT (double strand) [2.0x TTAGGC ds]”, the binding result in series [1] and in series [2] was “binds more weakly” in each case.

Regarding “CTGTTAGGCTTATCAAGGT (double strand) [1.5x T-rich ds]”, the binding result in series [1] and in series [2] was “binds more weakly” in each case.

As for “GCAGTTCGTAATCCAGGGCTGCCTAAGCCTAAGCCTAAGCCTAAGCCTAACCCATCGTTCGAGTCACGAA [5x GCCTAA ss (C-rich)]”, the binding result in series [3] (setting [5]) and in series [4] (setting [5]) was “no binding” each time.

As to “TTCGTGACTCGAACGATGGGAGGTCAAGGTCAAGGTCAAGGTCAAGGTCAAGCCCTGGATTACGAACTGC (double strand) [5x AGGTCA control ds]”, the binding result in series [3] (label: biotin 5' on strand 1) and in series [4] (label: biotin 5' on strand 1) was “no binding” each time.

Turning to “TTCGTGACTCGAACGATGGGAGGTCAAGGTCAAGGTCAAGGTCAAGGTCAAGCCCTGGATTACGAACTGC [5x AGGTCA control ss]”, the binding result in series [3] (setting [5]) and in series [4] (setting [5]) was “no binding” throughout.

In the case of “TTCGTGACTCGAACGATGGGTTAGGCTTAGGCTTAGGCTTAGGCTTAGGCAGCCCTGGATTACGAACTGC (double strand) [5x TTAGGC ds]”, the binding result in series [3] (label: biotin 5' on strand 1) and in series [4] (label: biotin 5' on strand 1) was “binds” throughout.

On to “TTCGTGACTCGAACGATGGGTTAGGCTTAGGCTTAGGCTTAGGCTTAGGCAGCCCTGGATTACGAACTGC [5x TTAGGC ss (G-rich)]”, for which the binding result in series [3] (setting [5]) and in series [4] (setting [5]) was “no binding” throughout.

The values above are taken from paper PMC8113555.
